In the supplement of paper PMC10032668:
The other results are listed elsewhere or left out. The list holds hits alone, and they repeat only in part.

Amino acid sequences for entries named in this document (tags omitted).
ATXN2, Q99700, UniProt Q99700, whole entry: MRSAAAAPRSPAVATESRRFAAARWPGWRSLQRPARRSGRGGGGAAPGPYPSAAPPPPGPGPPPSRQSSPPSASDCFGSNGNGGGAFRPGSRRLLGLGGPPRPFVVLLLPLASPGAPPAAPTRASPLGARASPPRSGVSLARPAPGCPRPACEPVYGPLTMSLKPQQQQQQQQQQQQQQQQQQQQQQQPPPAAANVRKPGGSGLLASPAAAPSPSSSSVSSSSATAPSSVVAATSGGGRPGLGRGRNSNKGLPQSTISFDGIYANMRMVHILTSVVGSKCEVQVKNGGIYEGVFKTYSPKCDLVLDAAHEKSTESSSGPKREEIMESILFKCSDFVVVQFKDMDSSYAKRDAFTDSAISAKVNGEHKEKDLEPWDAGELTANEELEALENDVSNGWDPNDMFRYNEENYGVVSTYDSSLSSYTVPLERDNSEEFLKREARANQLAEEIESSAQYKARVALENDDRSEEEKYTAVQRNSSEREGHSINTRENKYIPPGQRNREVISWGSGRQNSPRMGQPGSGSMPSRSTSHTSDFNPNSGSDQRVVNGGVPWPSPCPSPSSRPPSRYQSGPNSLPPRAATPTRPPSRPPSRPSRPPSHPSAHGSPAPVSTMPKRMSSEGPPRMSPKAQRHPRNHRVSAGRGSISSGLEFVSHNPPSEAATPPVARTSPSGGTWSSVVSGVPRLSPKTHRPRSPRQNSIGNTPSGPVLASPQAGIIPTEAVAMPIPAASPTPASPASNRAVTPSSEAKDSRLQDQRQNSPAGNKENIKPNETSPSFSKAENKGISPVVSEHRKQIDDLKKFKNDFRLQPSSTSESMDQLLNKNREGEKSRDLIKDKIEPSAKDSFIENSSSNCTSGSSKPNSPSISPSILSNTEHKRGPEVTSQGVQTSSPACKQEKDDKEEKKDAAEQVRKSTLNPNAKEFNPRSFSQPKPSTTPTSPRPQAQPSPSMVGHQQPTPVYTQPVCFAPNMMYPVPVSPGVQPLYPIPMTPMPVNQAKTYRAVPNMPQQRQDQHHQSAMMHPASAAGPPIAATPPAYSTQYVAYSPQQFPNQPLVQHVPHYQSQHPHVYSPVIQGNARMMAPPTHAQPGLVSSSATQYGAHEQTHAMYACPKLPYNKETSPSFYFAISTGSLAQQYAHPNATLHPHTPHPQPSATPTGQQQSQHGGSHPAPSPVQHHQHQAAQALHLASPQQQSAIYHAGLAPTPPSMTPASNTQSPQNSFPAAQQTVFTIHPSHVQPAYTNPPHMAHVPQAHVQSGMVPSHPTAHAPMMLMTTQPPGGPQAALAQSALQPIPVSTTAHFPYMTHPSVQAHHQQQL
HIST1H1E, P10412, UniProt P10412, whole entry: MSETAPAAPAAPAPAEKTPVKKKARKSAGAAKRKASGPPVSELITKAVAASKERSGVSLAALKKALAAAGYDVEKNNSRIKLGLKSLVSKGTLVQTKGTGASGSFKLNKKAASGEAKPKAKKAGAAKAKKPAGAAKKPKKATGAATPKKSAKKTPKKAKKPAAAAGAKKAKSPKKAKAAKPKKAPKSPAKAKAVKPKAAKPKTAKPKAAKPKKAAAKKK
PSMC5, P62195, UniProt P62195, whole entry: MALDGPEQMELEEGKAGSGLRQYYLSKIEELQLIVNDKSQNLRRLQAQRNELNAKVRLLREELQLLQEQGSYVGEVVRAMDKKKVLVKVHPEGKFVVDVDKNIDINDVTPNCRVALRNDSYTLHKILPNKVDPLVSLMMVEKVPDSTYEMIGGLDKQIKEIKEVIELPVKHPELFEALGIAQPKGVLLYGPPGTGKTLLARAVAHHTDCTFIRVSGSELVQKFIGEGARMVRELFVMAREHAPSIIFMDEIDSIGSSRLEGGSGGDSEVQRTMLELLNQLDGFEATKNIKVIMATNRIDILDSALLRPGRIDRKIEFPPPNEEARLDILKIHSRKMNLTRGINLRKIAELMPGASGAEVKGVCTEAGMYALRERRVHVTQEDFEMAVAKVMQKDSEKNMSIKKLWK
VAMP3, Q15836, UniProt Q15836, whole entry: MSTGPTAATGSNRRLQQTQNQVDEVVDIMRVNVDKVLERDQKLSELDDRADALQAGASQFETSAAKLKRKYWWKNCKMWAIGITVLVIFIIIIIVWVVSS
EIF4G1, Q04637, UniProt Q04637, whole entry: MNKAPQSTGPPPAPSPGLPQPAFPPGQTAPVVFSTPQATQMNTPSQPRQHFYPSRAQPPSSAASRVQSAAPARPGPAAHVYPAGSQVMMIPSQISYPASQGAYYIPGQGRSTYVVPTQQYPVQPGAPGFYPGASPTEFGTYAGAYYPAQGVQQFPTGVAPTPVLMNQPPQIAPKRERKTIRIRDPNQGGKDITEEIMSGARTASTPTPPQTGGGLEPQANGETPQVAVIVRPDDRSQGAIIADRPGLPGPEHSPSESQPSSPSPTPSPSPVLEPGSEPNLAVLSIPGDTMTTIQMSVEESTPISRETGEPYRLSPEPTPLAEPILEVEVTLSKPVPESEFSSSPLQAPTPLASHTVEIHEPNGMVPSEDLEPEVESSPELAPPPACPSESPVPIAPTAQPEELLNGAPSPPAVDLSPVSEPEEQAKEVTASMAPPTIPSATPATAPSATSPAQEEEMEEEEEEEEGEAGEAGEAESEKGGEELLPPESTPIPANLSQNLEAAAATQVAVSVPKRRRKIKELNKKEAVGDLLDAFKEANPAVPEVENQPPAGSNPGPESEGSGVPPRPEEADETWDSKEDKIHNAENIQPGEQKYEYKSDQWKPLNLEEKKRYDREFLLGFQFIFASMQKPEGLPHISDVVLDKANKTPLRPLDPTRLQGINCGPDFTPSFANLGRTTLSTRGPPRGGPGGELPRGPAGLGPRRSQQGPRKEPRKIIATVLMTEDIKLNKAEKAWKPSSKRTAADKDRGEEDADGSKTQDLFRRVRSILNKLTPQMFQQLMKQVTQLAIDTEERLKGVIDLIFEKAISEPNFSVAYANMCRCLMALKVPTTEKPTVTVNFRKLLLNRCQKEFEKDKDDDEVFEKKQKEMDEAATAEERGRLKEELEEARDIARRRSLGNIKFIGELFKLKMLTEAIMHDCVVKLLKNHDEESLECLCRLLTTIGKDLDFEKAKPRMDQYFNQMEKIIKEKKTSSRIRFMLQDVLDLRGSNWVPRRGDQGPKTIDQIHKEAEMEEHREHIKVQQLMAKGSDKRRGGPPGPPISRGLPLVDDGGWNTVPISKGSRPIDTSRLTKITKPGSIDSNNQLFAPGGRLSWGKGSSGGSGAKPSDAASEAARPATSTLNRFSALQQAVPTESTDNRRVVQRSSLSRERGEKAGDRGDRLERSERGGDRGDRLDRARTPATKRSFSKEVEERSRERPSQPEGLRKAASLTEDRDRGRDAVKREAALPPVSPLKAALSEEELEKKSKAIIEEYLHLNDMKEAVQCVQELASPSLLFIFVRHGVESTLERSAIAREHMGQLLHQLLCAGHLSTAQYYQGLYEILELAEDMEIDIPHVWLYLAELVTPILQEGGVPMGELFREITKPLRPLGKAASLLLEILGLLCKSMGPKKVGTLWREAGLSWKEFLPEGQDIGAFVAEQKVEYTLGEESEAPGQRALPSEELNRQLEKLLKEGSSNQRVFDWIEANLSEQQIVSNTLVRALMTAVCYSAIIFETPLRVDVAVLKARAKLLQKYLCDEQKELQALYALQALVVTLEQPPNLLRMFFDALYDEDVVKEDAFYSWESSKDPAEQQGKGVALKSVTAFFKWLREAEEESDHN
FEN1, P39748, UniProt P39748, whole entry: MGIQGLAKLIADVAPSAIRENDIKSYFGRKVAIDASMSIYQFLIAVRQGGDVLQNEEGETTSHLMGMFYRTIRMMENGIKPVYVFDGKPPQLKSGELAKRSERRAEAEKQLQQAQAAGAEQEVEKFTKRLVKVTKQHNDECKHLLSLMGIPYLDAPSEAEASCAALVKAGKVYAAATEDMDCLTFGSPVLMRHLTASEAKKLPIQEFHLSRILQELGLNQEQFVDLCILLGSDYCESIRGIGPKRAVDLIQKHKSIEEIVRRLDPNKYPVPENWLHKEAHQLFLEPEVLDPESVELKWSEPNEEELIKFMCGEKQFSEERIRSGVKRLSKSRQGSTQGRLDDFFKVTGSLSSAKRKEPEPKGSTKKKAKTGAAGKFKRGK
NDUFS7, O75251, UniProt O75251, whole entry: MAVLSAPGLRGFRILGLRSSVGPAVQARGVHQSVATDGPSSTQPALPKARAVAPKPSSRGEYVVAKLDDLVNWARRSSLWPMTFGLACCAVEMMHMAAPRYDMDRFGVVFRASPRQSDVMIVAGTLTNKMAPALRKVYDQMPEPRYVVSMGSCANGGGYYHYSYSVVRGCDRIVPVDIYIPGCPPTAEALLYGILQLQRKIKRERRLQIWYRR

Legend:
Experiment in all cases: PRISMA enrichment of interactor (LFQ) in peptide spot vs all other peptide spots (log2 fold change); higher = stronger / more specific binding of the interactor to the peptide
[1] = target: ATXN2, Q99700
Experimental: (§1)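 PRISMA: 15-aa overlapping tiles (offset 8 aa) of 60 microproteins, plus SOS1/GLUT1 control peptides, were spot-synthesized on cellulose membranes in triplicate. Membranes were incubated with benzonase-treated HEK293T lysate, and bound proteins were identified by LC-MS/MS with LFQ. Enrichment is the log2 fold change of each protein in one spot versus all other spots. Only interactors passing the significance cutoff are listed.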

[2] = target: BCAP31, P51572
Experimental: as §1

[3] = target: CSRP2, Q16527
Experimental: as §1

[4] = target: FCF1, Q9Y324
Experimental: as §1

[5] = target: HIST1H1E, P10412
Experimental: as §1

[6] = target: HP1BP3, Q5SSJ5
Experimental: as §1

[7] = target: IMPDH2, P12268
Experimental: as §1

[8] = target: LRRC41, Q15345
Experimental: as §1

[9] = target: MRPS31, Q92665
Experimental: as §1

[10] = target: NME4, O00746
Experimental: as §1

[11] = target: PRPF4B
Experimental: as §1

[12] = target: PRPS2, P11908
Experimental: as §1

[13] = target: PSMC5, P62195
Experimental: as §1

[14] = target: SYNE2, Q8WXH0
Experimental: as §1

[15] = target: TAF15, Q92804
Experimental: as §1

[16] = target: TEX264, Q9Y6I9
Experimental: as §1

[17] = target: VAMP3, Q15836
Experimental: as §1

[18] = target: YIF1A, O95070
Experimental: as §1

[19] = target: CC2D1A, Q6P1N0
Experimental: as §1

[20] = target: CDK5, Q00535
Experimental: as §1

[21] = substrate: CNBP, P62633
Experimental: as §1

[22] = target: COPS5, Q92905
Experimental: as §1

[23] = target: CPSF3, Q9UKF6
Experimental: as §1

[24] = target: CRKL, P46109
Experimental: as §1

[25] = target: DDX51, Q8N8A6
Experimental: as §1

[26] = target: EIF4G1, Q04637
Experimental: as §1

[27] = target: EXOC4, Q96A65
Experimental: as §1

[28] = target: EYA3, Q99504
Experimental: as §1

[29] = target: FEN1, P39748
Experimental: as §1

[30] = target: HOXB6, P17509
Experimental: as §1

[31] = target: IMP4, Q96G21
Experimental: as §1

[32] = target: MARK2, Q7KZI7
Experimental: as §1

[33] = target: MTCH2, Q9Y6C9
Experimental: as §1

[34] = target: NDUFS7, O75251
Experimental: as §1

[35] = target: NOL6, Q9H6R4
Experimental: as §1

[36] = target: PLS3, P13797
Experimental: as §1

[37] = target: RAB14, P61106
Experimental: as §1

[38] = target: RBM26, Q5T8P6
Experimental: as §1

[39] = target: RNH1, P13489
Experimental: as §1

[40] = target: SAFB, Q15424
Experimental: as §1

[41] = target: SNAPIN, O95295
Experimental: as §1

[42] = target: SUGT1, Q9Y2Z0
Experimental: as §1

[43] = target: TCAF1, Q9Y4C2
Experimental: as §1

[44] = target: USP39, Q53GS9
Experimental: as §1

[45] = target: WDR61, Q9GZS3
Experimental: as §1

[46] = target: YWHAG, P61981
Experimental: as §1

[47] = target: ZFR, Q96KR1
Experimental: as §1

GEGRRMQRPPAWSAG [C5orf56]
PRISMA enrichment of interactor (log2) [1]: 4.74 | PRISMA enrichment of interactor (log2) [2]: 4.54 | PRISMA enrichment of interactor (log2) [3]: 5.19 | PRISMA enrichment of interactor (log2) [4]: 4.23 | PRISMA enrichment of interactor (log2) [5]: 7.2 | PRISMA enrichment of interactor (log2) [6]: 6.77 | PRISMA enrichment of interactor (log2) [7]: 5.22 | PRISMA enrichment of interactor (log2) [8]: 4.32 | PRISMA enrichment of interactor (log2) [9]: 4.86 | PRISMA enrichment of interactor (log2) [10]: 4.69 | PRISMA enrichment of interactor (log2) [11]: 5.21 | PRISMA enrichment of interactor (log2) [12]: 7.96 | PRISMA enrichment of interactor (log2) [13]: 6.07 | PRISMA enrichment of interactor (log2) [14]: 5.94 | PRISMA enrichment of interactor (log2) [15]: 4.65 | PRISMA enrichment of interactor (log2) [16]: 7.74 | PRISMA enrichment of interactor (log2) [17]: 5.93 | PRISMA enrichment of interactor (log2) [18]: 3.88

WQGQVAKCTQPSQQG [RP11-140K17.3]
PRISMA enrichment of interactor (log2) [1]: 5.48 | PRISMA enrichment of interactor (log2) [19]: 6.27 | PRISMA enrichment of interactor (log2) [20]: 3.93 | PRISMA enrichment of interactor (log2) [21]: 3.95 | PRISMA enrichment of interactor (log2) [22]: 4.47 | PRISMA enrichment of interactor (log2) [23]: 4.24 | PRISMA enrichment of interactor (log2) [24]: 4.24 | PRISMA enrichment of interactor (log2) [25]: 5.64 | PRISMA enrichment of interactor (log2) [26]: 5 | PRISMA enrichment of interactor (log2) [27]: 5.84 | PRISMA enrichment of interactor (log2) [28]: 4.74 | PRISMA enrichment of interactor (log2) [29]: 7.28 | PRISMA enrichment of interactor (log2) [30]: 3.78 | PRISMA enrichment of interactor (log2) [31]: 3.6 | PRISMA enrichment of interactor (log2) [32]: 8.69 | PRISMA enrichment of interactor (log2) [33]: 4.83 | PRISMA enrichment of interactor (log2) [34]: 4.61 | PRISMA enrichment of interactor (log2) [35]: 4.87 | PRISMA enrichment of interactor (log2) [36]: 4.7 | PRISMA enrichment of interactor (log2) [37]: 6.85 | PRISMA enrichment of interactor (log2) [38]: 5.09 | PRISMA enrichment of interactor (log2) [39]: 4.25 | PRISMA enrichment of interactor (log2) [40]: 4.9 | PRISMA enrichment of interactor (log2) [41]: 5.18 | PRISMA enrichment of interactor (log2) [42]: 4.45 | PRISMA enrichment of interactor (log2) [43]: 4.9 | PRISMA enrichment of interactor (log2) [44]: 4.7 | PRISMA enrichment of interactor (log2) [45]: 4.51 | PRISMA enrichment of interactor (log2) [46]: 4.52 | PRISMA enrichment of interactor (log2) [47]: 6.63
